# Laboratory results: PubChem BioAssay AID1347423 (Functional Genomics Laboratory (NCATS/FGL), 2020)
# The whole screen tested about 52,000 sequences, of which about 210 (0.4%) were called active.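 How the source made its calls: active means gene whose silencing raises cell survival under the drug, median off-target-corrected z-score across its silencing RNAs 2 or more; inactive means the rest.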 The list shows a part of the results.
# Experiment: Resistance to Poly (ADP-Ribose) Polymerase inhibitor: Gene Identification via Genome-wide siRNA Screen
# Conditions: mouse BRCA2 R2336H ES cells, olaparib, CellTiter-Glo viability; hits give high values
# How it was run: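 Genome-wide siRNA screen (3 siRNAs/gene, 20 nM) in mouse ES cells carrying hypomorphic BRCA2 R2336H; olaparib 500 nM added 48 h post-transfection, CellTiter-Glo viability 72 h later. Normalized to plate-median negative control; MAD z-scores, gene median, seed-adjusted.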
row,Sequence,z-score
1,GGUUGGUAGUCCUUUAAGATT against AW212607,inactive: 0.715
2,GGAUCGAGACAAGGCCAAATT against Fes,inactive: 0.581
3,GGGAGAAGCAGAAAGAACUTT against Rundc1,inactive: 0.215
4,GGAACUCCUAAAGAAGAGGTT against Galnt15,inactive: 0.896
5,GCUCGAGAGUACUGUAGGCTT against Myst1,inactive: 0.00323
6,CCCUGUUACAGUCAGAAGCTT against Slc39a13,inactive: -0.371
7,GUACACCAGUGGAAGCACATT against Sprr2b,inactive: -1.25
8,GGUUCUCAGGGUCCUAAACTT against 1600014E20Rik,inactive: -0.0581
9,CCAUGGCCUAGAGCUGGAUTT against Unc5cl,inactive: 0.136
10,CCAUAUUCCGGUUAAUUCATT against 1700102P08Rik,inactive: 0.507
11,GCACUGAUGUUAUCCGAAGTT against AW552001,inactive: 0.627
12,GGUGUCCGUAAAUGGAGUGTT against A430033K04,inactive: -0.587
13,GCAGCUCGAUGGAACUCCATT against Abl1,inactive: -0.66
14,GGUCAGAUUCUUUGAUGAATT against Ssr4,inactive: 0.72
15,GGGUUUGGCCAUGAAUUUGTT against Hgf,inactive: 0.514
16,CCCUAAACCAGAUGCGUACTT against Epn3,inactive: 0.627
17,GGAGUCAUAUGCACAGAUCTT against Tcte3,inactive: 0.829
18,CAUAUGAAAAUGAAUGCCATT against Spink4,inactive: 0.587
19,GCGCAUGACUACAUCAGCUTT against Ptgs1,inactive: -1.75
20,GGACUGUGGAUAACCUGCUTT against Hspb2,inactive: 1.03
21,GGAUAAAUGCCAUUUUGGATT against Cpeb1,inactive: -0.04
22,GGACAAGUAAAACAGAACATT against Muc4,inactive: 0.255
23,GGGUUUUGGGAUAAAUAACTT against D030056L22,inactive: -0.0651
24,GGAUCUGAAAGAUUAGAUUTT against 9030221C07Rik,inactive: 0.122
25,GCCUUGUGACGACAUAAAGTT against Rabl3,inactive: -0.295
26,CCUUGUUUGAAUAACGAACTT against 5830427D03Rik,inactive: 0.463
27,GGAUAUGUCAGCAUAUGUGTT against Gas41,inactive: -0.0702

row,Sequence,z-score
1,GGCGUGUCCUACCUUGAAATT against Scg3,inactive: -1.09
2,GCAAAUACUCUCAACUAACTT against Celsr3,inactive: 1.34
3,GUACAUCAUAGCCAAGUUCTT against Foxl2,inactive: -1.17
4,GGAAAGGAAUGUUCAAAUUTT against Psmb8,inactive: -0.552
5,GCGAGAGUUCAAUGCGUUUTT against Pwp2h,inactive: -1.56
6,GGAAAGAAGAAAGUGCAAUTT against Tns,inactive: 1.89
7,CGUAUGUUGGAACAAAUGCTT against Map2k5,inactive: 0.883
8,GGCUUUCGGUUAUGACCAATT against Alas2,inactive: 0.164
9,GCCUUUAAGUGGAAUCAGUTT against Serhl,inactive: -0.65
10,GGAUAACCCUAAGUUUAUGTT against Clu,inactive: 1.85
11,GCUUUACUGAGAUUGAGCGTT against Zfp289,inactive: 0.533
12,GGAAAUUGGAGAUUUUUCCTT against 1700007N18Rik,inactive: 0.824
13,GGAAUGGUGAUAGCCACACTT against Olfr24,inactive: -1.31
14,CGCUCUGUAGUUUCCUUUCTT against Camk1d,inactive: 1.46
15,CGUGACCAUCAGGCUAAAGTT against 1500015O10Rik,inactive: -1.95
16,GCCCAACCAGUUUGAAUCUTT against AI663987,inactive: -0.14
17,CGAAUAUGCAGGAUGGUAGTT against 1110034A24Rik,inactive: 0.786
18,GGAGAAGGAAAUUCAGAAATT against Gnpda1,inactive: 0.0973
19,GGAGAACCCUUAUGUGACATT against Pik3ca,inactive: 1.14
20,GGAAGAAAAGGUGUUUACATT against Gpr143,inactive: 1.18
21,GAUUUACUCUGGACAUUUUTT against D8Ertd354e,inactive: -0.735
22,GCGGUAGAGACUACAGCCUTT against BC028528,inactive: 0.291
23,GGCUUUGAUUGAACAUGAGTT against Lypla2,inactive: 0.783
24,GGGCUUCAACACUGAGAAGTT against Arf4l,inactive: -1.54
25,GGGAUCCUUGUAUUUCUUUTT against Ctns,inactive: -0.123
26,GGAUGUGGAAGAGUUAAUUTT against Palm2,inactive: 0.0302
27,GGCUCUUAGAAAAAUGUUATT against Olfr1156,inactive: 0.386

# Exported with bars between the fields: part of the list above
row | Sequence | z-score
1 | GGCGUGUCCUACCUUGAAATT against Scg3 | inactive: -1.09
2 | GCAAAUACUCUCAACUAACTT against Celsr3 | inactive: 1.34
3 | GUACAUCAUAGCCAAGUUCTT against Foxl2 | inactive: -1.17
8 | GGCUUUCGGUUAUGACCAATT against Alas2 | inactive: 0.164
9 | GCCUUUAAGUGGAAUCAGUTT against Serhl | inactive: -0.65
10 | GGAUAACCCUAAGUUUAUGTT against Clu | inactive: 1.85
11 | GCUUUACUGAGAUUGAGCGTT against Zfp289 | inactive: 0.533
12 | GGAAAUUGGAGAUUUUUCCTT against 1700007N18Rik | inactive: 0.824
14 | CGCUCUGUAGUUUCCUUUCTT against Camk1d | inactive: 1.46
16 | GCCCAACCAGUUUGAAUCUTT against AI663987 | inactive: -0.14
18 | GGAGAAGGAAAUUCAGAAATT against Gnpda1 | inactive: 0.0973
19 | GGAGAACCCUUAUGUGACATT against Pik3ca | inactive: 1.14
21 | GAUUUACUCUGGACAUUUUTT against D8Ertd354e | inactive: -0.735
22 | GCGGUAGAGACUACAGCCUTT against BC028528 | inactive: 0.291
23 | GGCUUUGAUUGAACAUGAGTT against Lypla2 | inactive: 0.783
24 | GGGCUUCAACACUGAGAAGTT against Arf4l | inactive: -1.54
25 | GGGAUCCUUGUAUUUCUUUTT against Ctns | inactive: -0.123
26 | GGAUGUGGAAGAGUUAAUUTT against Palm2 | inactive: 0.0302
27 | GGCUCUUAGAAAAAUGUUATT against Olfr1156 | inactive: 0.386

# (cont.)

row,Sequence,z-score
1,GGUCUUUUCUAUUAUGGGATT against Strc,inactive: 0.95
2,GGACAAGAAGAAAAAGAAGTT against Tmie,inactive: -0.587
3,GGUUCUCAUCAACCUUCUCTT against Olfr109,inactive: 2.16
4,GGGCUUUCUUUGUGAUAUUTT against BC055367,inactive: -0.666
5,GCUUUUACCGUUACGUCUUTT against Ugcgl1,inactive: -0.188
6,GGAGCUUGAAGGAUGAGGATT against Plaur,inactive: 1.31
7,GCCACGAUAAUUCAGGAGUTT against Aurkc,inactive: 1.25
8,GCACAGUUAGCAUUGCUCCTT against Hoxc10,inactive: 0.577
9,GGUGAUGGAAGUUAGUGUGTT against Bet1,inactive: -0.804
10,GGAGAAAAUGAGGUUAAUGTT against Tm4sf9,inactive: -0.0318
11,GGUAUUUGAUGGUCACAAATT against Rtn3,inactive: -0.386
12,GGUUUUGCCAAGGACGCAGTT against Ngfb,inactive: 0.256
13,GGAAGCUCAGCUCCUAUCUTT against Nek4,inactive: -1.49
14,CGGCACCAGUUACAAAGUGTT against MGC107514,inactive: -2.72
15,CCAUAGAGUGGAUAGUCAUTT against Rsl1,inactive: 1.22
16,CGCGAGCUCAGAAUACAUGTT against Btn1a1,inactive: -0.329
17,GGAAGUGUCCUUCUACCAGTT against Hoxd13,inactive: 0.247
18,GGUCCUGACACAUUCUUACTT against Olfr571,inactive: -0.707
19,GCCCAGAGUUACGAGUAUGTT against Aacs,inactive: 1.6
20,GGUCCUCAGAAUGUAACAGTT against Jam4,inactive: -0.665
21,GGAAAGCAUGAGUUAAUAATT against 5033405K12Rik,inactive: -2.02
22,GGCAUUUUGAAAACAAGGUTT against Cox7a2,inactive: 1.31
23,GGAGAAAGUGUCCUCUGUGTT against Olfr924,inactive: -1.88
24,GGAAAGGAACUAGCAACGATT against Art3,inactive: 1.23
25,GGAAAGGUAUGAGUGAAGATT against Ifi205,inactive: 0.199
26,CCGCAUGAACUUCCUACAGTT against Ugt1a1,inactive: 0.243
27,GGCAUCUGUAAGCCAGAUCTT against 2410021P16Rik,inactive: 0.61

row,Sequence,z-score
1,GGACUUUCAGUUAUAUAGGTT against 1110031I02Rik,inactive: 1.15
2,GGAGAUGGCCAAAAAAGAGTT against Pop1,inactive: -0.929
3,GAAACCAGUAGACAAAUACTT against 1110067L22Rik,inactive: -0.563
4,GCUUAUGAACCUCAGAGGGTT against Tex19,inactive: 0.0582
5,GCACACACUGCUACGAUGGTT against 1190003K14Rik,inactive: 0.414
6,GGCAUGAGUCACUUGAUGATT against Hebp1,inactive: 0.719
7,AAGGAAGACAGUCAUAGCUTT against V1rd9,inactive: 0.72
8,GCCUUUACCGAGUGCACAUTT against Ttyh3,inactive: 0.416
9,GCACUGGGAAGAAAAUUCUTT against Olfr130,inactive: -0.313
10,GCGGCUAAUUCGUUCUUUCTT against Atp8a1,inactive: 2.34
11,GCGAGAUGCCAACAAACUGTT against Pacs1,inactive: 0.346
12,GCAAACUGAAAAAACCCGCTT against Stk22c,inactive: -0.126
13,GGGAUGUGAUAGUUCAUAATT against Sil,inactive: -1.64
14,GCUGAUGACCACUGAGUUUTT against 2310007F12Rik,inactive: 1.45
15,GGAUGCUAUAAAAUCACCATT against Rps27,inactive: -0.268
16,GGGCUUCAUUCUCGUCUACTT against Rap2b,inactive: -0.831
17,GGCCCAACAAUACCUGCUGTT against Rgs17,inactive: 0.132
18,GGAUACACAGACAUUAAUCTT against Cd164,inactive: -0.688
19,GGUUUCGUAGCUUAACCACTT against Rab27a,inactive: -1.31
20,GCUGAAUGGAAGGAAGUUGTT against BC056474,inactive: -2.14
21,GGUACUUGAAGCUCCUUGGTT against Faim3,inactive: -3.06
22,GGACUACGGAUACAGGAUATT against Sfrp5,inactive: 0.855
23,GGAGAAUACAGUGGAAUUGTT against Idh3a,inactive: -0.598
24,GGAUGAAGGGACGAAUUCATT against Pcdha6,inactive: 0.447
